Measured values as given in the supplement of paper PMC4604168 (melanoma cell lines).
Some of the results follow. Many values rest on one well or one pass, so single values are uncertain.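 Imaging used 1,536-well plates; nuclei positive for cleaved PARP by antibody were divided by total DNA-stained nuclei to yield the apoptosis fraction. Doses for screening kept most cells viable, and cell lines differ markedly in resting and induced cleaved-PARP levels.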

Each molecule was assayed on A2058 (assay: cleaved PARP positive nuclei fraction relative to DMSO control; melanoma cells; higher = more apoptosis). Details: library dose: low library concentration; 72 h.

Compound | cleaved PARP positive nuclei fraction
Cn1cc(C2=C(c3cn(C4CCN(Cc5ccccn5)CC4)c4ccccc34)C(=O)NC2=O)c2ccccc21 [Enzastaurin] + C#Cc1cccc(Nc2ncnc3cc(OCCOC)c(OCCOC)cc23)c1 [erlotinib] (first compound 0.8 µM, partner dose 0.8 µM) | 98.5%
C[C@]12O[C@H](C[C@]1(O)CO)n1c3ccccc3c3c4c(c5c6ccccc6n2c5c31)CNC4=O [Lestaurtinib] + CC(=O)O[C@@]12CO[C@@H]1C[C@H](O)[C@@]1(C)C(=O)[C@H](O)C3=C(C)[C@@H](OC(=O)[C@H](O)[C@@H](NC(=O)OC(C)(C)C)c4ccccc4)C[C@@](O)([C@@H](OC(=O)c4ccccc4)[C@H]21)C3(C)C [Docetaxel] (first compound 0.004 µM, partner dose 0.0001 µM) | 1200%
C[C@]12O[C@H](C[C@]1(O)CO)n1c3ccccc3c3c4c(c5c6ccccc6n2c5c31)CNC4=O [Lestaurtinib] + CS(=O)(=O)c1ccc(C(=O)Nc2ccc(Cl)c(-c3ccccn3)c2)c(Cl)c1 [vismodegib] (first compound 0.004 µM, partner dose 1 µM) | 98.9%
N.N.[Cl][Pt][Cl] [cisplatin] + C=CCNC1=C2C[C@@H](C)C[C@H](OC)[C@H](O)[C@@H](C)/C=C(\C)[C@H](OC(N)=O)[C@@H](OC)/C=C\C=C(/C)C(=O)NC(=CC1=O)C2=O [Tanespimycin] (first compound 1.6 µM, partner dose 0.002 µM) | 71.3%
